{
  "source": "patent US20090068207A1",
  "about": "“Compositions Containing Beta 2-Glycoprotein I-Derived Peptides for the Prevention and/or Treatment of Vascular Disease” (Vascular Biogenics Ltd., priority 2005, published 2009)",
  "molecules": {"B1": {"name": "β2GPI: beta2-glycoprotein I, species not stated at the place (human or bovine; FIG. 7 legend says bovine) (protein, UniProt P17690 20-345, looked up)", "Beta-2-glycoprotein 1": "GRTCPKPDELPFSTVVPLKRTYEPGEQIVFSCQPGYVSRGGIRRFTCPLTGLWPINTLKCMPRVCPFAGILENGTVRYTTFEYPNTISFSCHTGFYLKGASSAKCTEEGKWSPDLPVCAPITCPPPPIPKFASLSVYKPLAGNNSFYGSKAVFKCLPHHAMFGNDTVTCTEHGNWTQLPECREVRCPFPSRPDNGFVNHPANPVLYYKDTATFGCHETYSLDGPEEVECSKFGNWSAQPSCKASCKLSIKRATVIYEGERVAIQNKFKNGMLHGQKVSFFCKHKEKKCSYTEDAQCIDGTIEIPKCFKEHSSLAFWKTDASDVKPC"}, "B2": {"name": "B-β2 GPI: bovine beta2-glycoprotein I purified from serum (protein, UniProt P17690 20-345, looked up)", "Beta-2-glycoprotein 1": "B1 Beta-2-glycoprotein 1"}, "B3": {"name": "Human β2 GPI: human beta2-glycoprotein I (SEQ ID NO: 10) purified from serum (protein)", "chain": "MISPVLILFSSFLCHVAIAGRTCPKPDDLPFSTVVPLKTFYEPGEEITYSCKPGYVSRGGMRKFICPLTGLWPINTLKCTPRVCPFAGILENGAVRYTTFEYPNTISFSCNTGFYLNGADSAKCTEEGKWSPELPVCAPIICPPPSIPTFATLRVYKPSAGNNSLYRDTAVFECLPQHAMFGNDTITCTTHGNWTKLPECREVKCPFPSRPDNGFVNYPAKPTLYYKDKATFGCHDGYSLDGPEEIECTKLGNWSAMPSCKASCKLPVKKATVVYQGERVKIQEKFKNGMLHGDKVSFFCKNKEKKCSYTEDAQCIDGTIEVPKCFKEHSSLAFWKTDASDVKPC"}, "B4": {"name": "B-β2GPI: head of Table 5; text and footnote say human β2GPI, 50 μg/mouse orally (protein, UniProt P02749 20-345, looked up)", "Beta-2-glycoprotein 1": "GRTCPKPDDLPFSTVVPLKTFYEPGEEITYSCKPGYVSRGGMRKFICPLTGLWPINTLKCTPRVCPFAGILENGAVRYTTFEYPNTISFSCNTGFYLNGADSAKCTEEGKWSPELPVCAPIICPPPSIPTFATLRVYKPSAGNNSLYRDTAVFECLPQHAMFGNDTITCTTHGNWTKLPECREVKCPFPSRPDNGFVNYPAKPTLYYKDKATFGCHDGYSLDGPEEIECTKLGNWSAMPSCKASCKVPVKKATVVYQGERVKIQEKFKNGMLHGDKVSFFCKNKEKKCSYTEDAQCIDGTIEVPKCFKEHSSLAFWKTDASDVKPC"}},
  "type_in_all_cases": "in vivo",
  "key": {"[1]": {"test": "Body weight, plasma cholesterol and triglyceride after oral administration (LDL-RD mice)", "details": "for Cholesterol / Triglyceride / Weight: mean ± S.E"}, "[2]": {"test": "Body weight, plasma cholesterol and triglyceride after oral administration (ApoE-KO mice)", "details": "for Cholesterol / Triglyceride / Weight: ApoE-KO mice"}, "[3]": {"test": "Body weight, plasma cholesterol and triglyceride after intraperitoneal immunization (LDL-RD mice)", "details": "head 100 μg"}, "[4]": {"test": "Body weight, plasma cholesterol and triglyceride after nasal administration (LDL-RD mice)", "details": "END, intranasal 10 μg/mouse every other day for 5 days, then Western diet"}, "[5]": {"test": "Body weight, plasma cholesterol and triglyceride after nasal administration (ApoE-KO mice)", "details": "mean ± S.E"}, "[6]": {"details": "Time 0, intraperitoneal immunization groups, mean ± S.E"}, "[7]": {"details": "Time 0, nasal 10 μg/mouse groups"}, "[8]": {"details": "End t = 16 wks, oral 50 μg/mouse, mean ± S.E"}, "[9]": {"details": "Start t = 0, oral 50 μg/mouse group, mean ± S.E"}},
  "data": [
    {"molecule": "B1", "values": [
      {"measurement": "influence on total cholesterol or triglycerides levels", "setting": "[1]; oral, at either dose (500 or 50 μg)", "value": "No significant influence"},
      {"measurement": "influence on body weight, total cholesterol or triglycerides levels", "setting": "[2]; oral 50 μg, adult male Apo-E KO mice", "value": "No significant influence"}
    ]},
    {"molecule": "B2", "values": [
      {"measurement": "Cholesterol", "setting": "[1]; End, oral 50 μg", "value": "1200 ± 76", "unit": "mg/dL"},
      {"measurement": "Triglyceride", "setting": "[1]; End, oral 50 μg", "value": "313 ± 51", "unit": "mg/dL"},
      {"measurement": "Weight", "setting": "[1]; End, oral 50 μg", "value": "30.8 ± 0.8", "unit": "g"},
      {"measurement": "Cholesterol", "setting": "[1]; End, oral 500 μg", "value": "1196 ± 75", "unit": "mg/dL"},
      {"measurement": "Triglyceride", "setting": "[1]; End, oral 500 μg", "value": "318 ± 55", "unit": "mg/dL"},
      {"measurement": "Weight", "setting": "[1]; End, oral 500 μg", "value": "29.8 ± 0.9", "unit": "g"},
      {"measurement": "Cholesterol", "setting": "[1]; Start, oral 50 μg groups", "value": "231 ± 14", "unit": "mg/dL"},
      {"measurement": "Triglyceride", "setting": "[1]; Start, oral 50 μg groups", "value": "179 ± 20", "unit": "mg/dL"},
      {"measurement": "Weight", "setting": "[1]; Start, oral 50 μg groups", "value": "26.4 ± 0.7", "unit": "g"},
      {"measurement": "Cholesterol", "setting": "[1]; Start, oral 500 μg groups", "value": "233 ± 15", "unit": "mg/dL"},
      {"measurement": "Triglyceride", "setting": "[1]; Start, oral 500 μg groups", "value": "178 ± 23", "unit": "mg/dL"},
      {"measurement": "Weight", "setting": "[1]; Start, oral 500 μg groups", "value": "25.7 ± 0.7", "unit": "g"}
    ]},
    {"molecule": "B3", "values": [
      {"measurement": "Cholesterol", "setting": "[3]; End, intraperitoneal with incomplete Freund's adjuvant, mean ± S.E", "value": "1319 ± 136", "unit": "mg/dL"},
      {"measurement": "Triglyceride", "setting": "[3]; End, intraperitoneal with incomplete Freund's adjuvant, median", "value": 315, "unit": "mg/dL"},
      {"measurement": "Cholesterol", "setting": "[3]; [6]", "value": "202 ± 11", "unit": "mg/dL"},
      {"measurement": "Triglyceride", "setting": "[3]; [6]", "value": "77 ± 11", "unit": "mg/dL"},
      {"measurement": "Weight", "setting": "[3]; [6]", "value": "19.9 ± 1.0", "unit": "g"},
      {"measurement": "Weight", "setting": "[3]; second weight line (End), intraperitoneal with incomplete Freund's adjuvant, mean ± S.E", "value": "30.6 ± 1.1", "unit": "g"},
      {"measurement": "Weight", "setting": "[4]; mean ± S.E", "value": "29.2 ± 1.5", "unit": "g"},
      {"measurement": "Triglyceride", "setting": "[4]; median", "value": 380, "unit": "mg/dL"},
      {"measurement": "Cholesterol", "setting": "[1]; End, oral 50 μg", "value": "1237 ± 71", "unit": "mg/dL"},
      {"measurement": "Triglyceride", "setting": "[1]; End, oral 50 μg", "value": "342 ± 51", "unit": "mg/dL"},
      {"measurement": "Weight", "setting": "[1]; End, oral 50 μg", "value": "32.0 ± 0.6", "unit": "g"},
      {"measurement": "Cholesterol", "setting": "[1]; End, oral 100 μg", "value": "1130 ± 84", "unit": "mg/dL"},
      {"measurement": "Triglyceride", "setting": "[1]; End, oral 100 μg", "value": "295 ± 37", "unit": "mg/dL"},
      {"measurement": "Weight", "setting": "[1]; End, oral 100 μg", "value": "26.5 ± 0.7", "unit": "g"},
      {"measurement": "Cholesterol", "setting": "[1]; End, oral 500 μg", "value": "1232 ± 92", "unit": "mg/dL"},
      {"measurement": "Triglyceride", "setting": "[1]; End, oral 500 μg", "value": "415 ± 62", "unit": "mg/dL"},
      {"measurement": "Weight", "setting": "[1]; End, oral 500 μg", "value": "31.4 ± 1.0", "unit": "g"},
      {"measurement": "Cholesterol", "setting": "[1]; Start, oral 50 μg groups", "value": "227 ± 14", "unit": "mg/dL"},
      {"measurement": "Triglyceride", "setting": "[1]; Start, oral 50 μg groups", "value": "212 ± 26", "unit": "mg/dL"},
      {"measurement": "Weight", "setting": "[1]; Start, oral 50 μg groups", "value": "26.4 ± 0.7", "unit": "g"},
      {"measurement": "Cholesterol", "setting": "[1]; Start, oral 500 μg groups", "value": "231 ± 16", "unit": "mg/dL"},
      {"measurement": "Triglyceride", "setting": "[1]; Start, oral 500 μg groups", "value": "182 ± 18", "unit": "mg/dL"},
      {"measurement": "Weight", "setting": "[1]; Start, oral 500 μg groups", "value": "27.1 ± 0.7", "unit": "g"},
      {"measurement": "Cholesterol", "setting": "[1]; Time 0, oral 100 μg groups", "value": "247 ± 9", "unit": "mg/dL"},
      {"measurement": "Triglyceride", "setting": "[1]; Time 0, oral 100 μg groups", "value": "254 ± 27", "unit": "mg/dL"},
      {"measurement": "Weight", "setting": "[1]; Time 0, oral 100 μg groups", "value": "20.0 ± 0.7", "unit": "g"},
      {"measurement": "Cholesterol", "setting": "[2]; End, oral 50 μg, 5 doses", "value": "339 ± 11", "unit": "mg/dL"},
      {"measurement": "Triglyceride", "setting": "[2]; End, oral 50 μg, 5 doses", "value": "78 ± 3", "unit": "mg/dL"},
      {"measurement": "Weight", "setting": "[2]; End, oral 50 μg, 5 doses", "value": "25.6 ± 0.5", "unit": "g"},
      {"measurement": "Cholesterol", "setting": "[2]; Time 0, oral 50 μg groups", "value": "377 ± 24", "unit": "mg/dL"},
      {"measurement": "Triglyceride", "setting": "[2]; Time 0, oral 50 μg groups", "value": "86 ± 5", "unit": "mg/dL"},
      {"measurement": "Weight", "setting": "[2]; Time 0, oral 50 μg groups", "value": "24.5 ± 0.7", "unit": "g"},
      {"measurement": "Cholesterol", "setting": "[5]; End, nasal 10 μg/mouse", "value": "308 ± 9", "unit": "mg/dL"},
      {"measurement": "Triglyceride", "setting": "[5]; End, nasal 10 μg/mouse", "value": "108 ± 4", "unit": "mg/dL"},
      {"measurement": "Weight", "setting": "[5]; End, nasal 10 μg/mouse", "value": "25.5 ± 0.4", "unit": "g"},
      {"measurement": "Cholesterol", "setting": "[5]; [7]", "value": "357 ± 13", "unit": "mg/dL"},
      {"measurement": "Triglyceride", "setting": "[5]; [7]", "value": "67 ± 5", "unit": "mg/dL"},
      {"measurement": "Weight", "setting": "[5]; [7]", "value": "20.0 ± 0.5", "unit": "g"}
    ]},
    {"molecule": "B4", "values": [
      {"measurement": "Cholesterol", "setting": "[2]; [8]", "value": "505 ± 42", "unit": "mg/dL"},
      {"measurement": "Triglyceride", "setting": "[2]; [8]", "value": "109 ± 9", "unit": "mg/dL"},
      {"measurement": "Weight", "setting": "[2]; [8]", "value": "29.6 ± 0.8", "unit": "g"},
      {"measurement": "Cholesterol", "setting": "[2]; [9]", "value": "360 ± 17", "unit": "mg/dL"},
      {"measurement": "Triglyceride", "setting": "[2]; [9]", "value": "71 ± 17", "unit": "mg/dL"},
      {"measurement": "Weight", "setting": "[2]; [9]", "value": "25.5 ± 0.4", "unit": "g"}
    ]}
  ]
}
